Results published in the supplement of paper PMC3334620.
In all, about 33,000 sequences were measured (“E-score (-0.5 to 0.5)”: median about -0.015, highest 2% from about 0.3 on). This is one part of the list.

target: T1, Abf1 (UniProt P14164); test: PBM E-score (8-mer binding enrichment) (E-score (-0.5 to 0.5)); higher = stronger / more preferred TF binding; conditions: protein concentration: 200 nM; construct: GST-full length
T1 sequence: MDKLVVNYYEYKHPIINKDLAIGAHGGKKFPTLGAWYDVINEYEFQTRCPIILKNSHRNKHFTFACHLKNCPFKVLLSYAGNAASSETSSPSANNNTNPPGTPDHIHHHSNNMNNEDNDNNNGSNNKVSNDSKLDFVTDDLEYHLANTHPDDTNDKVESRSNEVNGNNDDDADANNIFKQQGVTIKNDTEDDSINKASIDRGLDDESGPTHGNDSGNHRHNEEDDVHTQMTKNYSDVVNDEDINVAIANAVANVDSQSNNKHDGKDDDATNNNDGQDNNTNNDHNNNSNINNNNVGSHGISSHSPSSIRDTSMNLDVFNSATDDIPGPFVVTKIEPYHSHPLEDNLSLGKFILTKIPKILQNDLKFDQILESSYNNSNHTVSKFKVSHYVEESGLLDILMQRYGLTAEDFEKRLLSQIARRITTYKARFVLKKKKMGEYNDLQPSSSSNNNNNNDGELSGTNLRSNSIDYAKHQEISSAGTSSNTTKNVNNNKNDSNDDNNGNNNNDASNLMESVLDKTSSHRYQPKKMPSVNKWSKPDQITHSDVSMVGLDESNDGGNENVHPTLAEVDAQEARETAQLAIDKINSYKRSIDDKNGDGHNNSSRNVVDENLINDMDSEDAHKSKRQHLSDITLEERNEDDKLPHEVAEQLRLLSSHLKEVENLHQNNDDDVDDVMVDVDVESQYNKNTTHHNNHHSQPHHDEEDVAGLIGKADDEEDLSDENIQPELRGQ
Experimental: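 Universal 'all 10-mer' protein binding microarrays (Agilent AMADID 015681) probed with GST-tagged S. cerevisiae TFs (full-length or DBD) made by in vitro transcription/translation (PURExpress), about 100-200 nM. Bound TF was detected with fluorescent anti-GST. Each ungapped 8-mer (which stands for itself and its reverse complement) is scored by the PBM enrichment score (E-score), a modified Wilcoxon-Mann-Whitney statistic from -0.5 to +0.5, computed with the Universal PBM Analysis Suite. Scale: above 0.35 generally sequence-specific binding.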

Sequence | PBM E-score
CATCGATC | 0.0492
AGATGAAA | -0.0632
CTAGCGAA | -0.197
CGGTAACG | -0.04
GGCGAGCC | -0.23
CGGCCTAA | -0.0583
CAGGTAAA | -0.0916
GGTTGACA | -0.0254
ACATAACT | 0.0117
CACACCGA | 0.0376
ATCGAAGC | -0.0766
ACAGGGAT | -0.188
GCTGAGCC | -0.115
AGAAAATG | 0.217
AGCTTCAG | -0.242
AAGAAAGG | 0.0224
CATGCGAG | -0.0409
CAGGGACC | -0.252
CGTCGTTC | 0.313
ACCAACCA | -0.0377
CTTCCGTC | 0.00848
CATGAGAA | 0.167
CCTGGGTA | -0.291
AGCCCCAT | -0.228
CCATGGGA | -0.292

Sequence | PBM E-score
CCATTCAC | -0.0768
AAAACCCT | 0.00394
CCGGGGCA | -0.165
CTTGCTAA | -0.0609
ACTCGGCG | -0.0974
CCCATTAC | -0.103
GGGCCGAC | 0.0732
CCATCTAG | -0.0382
CGTTTACA | 0.102
GATACTGA | 0.15
GCTGCTAC | -0.0937
CCACCAAA | -0.22
AGTGAAGG | -0.145
ACCAAGAT | -0.106
ACCGTATG | 0.27
AATGTGGA | 0.144
CATTCAGG | -0.227
CATAGGGC | -0.307
GACGGGTA | 0.00211
ACAGGCAA | 0.0828
GCCAAAGA | 0.0968
GTGAAGCA | 0.0833
ATTGCCAA | 0.00135
AGAGCGGC | -0.0944
ATATGATC | 0.0976

Sequence | PBM E-score
GAATGCGC | 0.0991
CGGTGTGA | -0.00412
CCTGGGGA | -0.246
ATGACTAA | 0.146
CAAGAGCG | -0.204
ACCGATGC | -0.104
GTAGACAC | -0.126
GCGGGCAC | -0.0439
CAGGGGCC | -0.169
ACTCGAGA | -0.0317
GCCCTTAC | -0.274
ACCACCAG | -0.112
CTATAAGA | 0.0466
TCGAAACA | 0.202
CTTCCAGC | -0.224
TCCGTCGA | 0.213
GTCATCGA | 0.232
CTCCTCAG | -0.29
CGGAGGTA | -0.0628
ATGCTTTA | -0.0839
TCCTGCGA | 0.0815
GGCGCGCA | -0.106
CTTGTAAC | 0.161
AGGTTACG | -0.0223
CTCGAGTA | 0.0248

Sequence | PBM E-score
AGCTTTTC | -0.112
AGAGGTCG | 0.0547
TACGAGGA | 0.209
AATACTTA | 0.217
GTAAGCAA | 0.0905
ACATTAGT | -0.163
CCGCAGTA | -0.128
CTGACATC | -0.0102
ATTTCAGC | -0.0147
TAATTCGA | 0.0406
ATACTTAA | 0.219
CTTTTGGC | 0.00509
AATGCAAC | 0.0165
CAGTTTAA | -0.0202
ACCTGGGA | 0.00969
GAGGTACC | -0.109
AAGTGGTC | -0.131
CTGCCATC | -0.154
CGACACCC | 0.0181
AGAAGTAA | 0.0849
ATTCTGTA | 0.14
ACCCGCTA | -0.184
AAATTATG | 0.226
CGCATCTA | 0.0129
CATGTCCC | -0.0216

Sequence | PBM E-score
GATCAGCC | -0.167
TGCAATAA | 0.0784
CCGTTAAG | 0.188
CGGTAGAA | -0.103
ATTGACGG | 0.211
CGGATTGA | 0.101
AACGTGAC | 0.0896
AGCGGATC | -0.169
AGTTTGGG | -0.236
AATCAGTG | -0.0316
AATGATGC | 0.196
AGCAAAAC | 0.0483
GGTCCACC | -0.0604
AGCAACAC | -0.0691
CAGGGTAG | -0.0412
AGTCTACG | 0.0566
GTCCAGAC | -0.164
AGCTATCA | 0.144
GTAGGGTA | 0.0591
ACTCCCGA | -0.0354
AACGGTAA | 0.0165
GAAAGAAA | 0.215
GCTACTGA | -0.031
CCTGCAAA | -0.134
CAGTGACC | 0.132

Sequence | PBM E-score
CCGGGCTA | -0.222
CTAGTCAC | 0.133
GTAAGCAC | -0.102
TACAAGAA | 0.0257
AACTACCC | -0.109
ATACGTGC | -0.17
CACAGGTG | -0.0741
CTGCCCAA | -0.158
GTTGACAA | 0.16
AGATTTAA | 0.131
AAGGTAGA | -0.117
CGTCCCAC | 0.0413
AATCGTAG | 0.197
CTAAGGCA | -0.0416
ACACGCGC | 0.00628
CCGCACAA | -0.205
AAAGAATT | 0.0713
ATGCACCG | 0.0676
CTCGAATA | -0.0536
GAGTTGCA | -0.22
CAATAGCC | -0.0912
CTAGGAGC | -0.198
AATCGACT | -0.0845
GATTCATA | 0.1
CAAAGAGG | -0.0721

Sequence | PBM E-score
GACACGAC | 0.169
CCTAGCAA | -0.141
CCTCGCTC | 0.135
TGGTTCAA | 0.0256
ACGTGACT | 0.174
AGCTGTAG | -0.272
ATGTGGGG | -0.303
CGACCGCA | 0.0407
AAGATGAT | 0.304
AATGACTA | 0.222
GAGGTGGC | -0.18
ACTATAAG | 0.0261
ACATTGGT | 0.00762
GCCCCCAA | -0.397
GGTAGAAC | -0.00934
TGGATTAA | -0.0745
AATTTACC | -0.137
GTGCTAAC | 0.0573
CGCTGACA | 0.0943
GGCTTGCA | -0.0401
CTCCCGTA | 0.118
AGCCGAAA | -0.131

47 entries from above, set out differently.

| Sequence | PBM E-score |
| --- | --- |
| CAGTGACC | 0.132 |
| CCGGGCTA | -0.222 |
| CTAGTCAC | 0.133 |
| GTAAGCAC | -0.102 |
| TACAAGAA | 0.0257 |
| AACTACCC | -0.109 |
| ATACGTGC | -0.17 |
| CACAGGTG | -0.0741 |
| CTGCCCAA | -0.158 |
| GTTGACAA | 0.16 |
| AGATTTAA | 0.131 |
| AAGGTAGA | -0.117 |
| CGTCCCAC | 0.0413 |
| AATCGTAG | 0.197 |
| CTAAGGCA | -0.0416 |
| ACACGCGC | 0.00628 |
| CCGCACAA | -0.205 |
| AAAGAATT | 0.0713 |
| ATGCACCG | 0.0676 |
| CTCGAATA | -0.0536 |
| GAGTTGCA | -0.22 |
| CAATAGCC | -0.0912 |
| CTAGGAGC | -0.198 |
| AATCGACT | -0.0845 |
| GATTCATA | 0.1 |
| CAAAGAGG | -0.0721 |
| GACACGAC | 0.169 |
| CCTAGCAA | -0.141 |
| CCTCGCTC | 0.135 |
| TGGTTCAA | 0.0256 |
| ACGTGACT | 0.174 |
| AGCTGTAG | -0.272 |
| ATGTGGGG | -0.303 |
| CGACCGCA | 0.0407 |
| AAGATGAT | 0.304 |
| AATGACTA | 0.222 |
| GAGGTGGC | -0.18 |
| ACTATAAG | 0.0261 |
| ACATTGGT | 0.00762 |
| GCCCCCAA | -0.397 |
| GGTAGAAC | -0.00934 |
| TGGATTAA | -0.0745 |
| AATTTACC | -0.137 |
| GTGCTAAC | 0.0573 |
| CGCTGACA | 0.0943 |
| GGCTTGCA | -0.0401 |
| CTCCCGTA | 0.118 |
